Experimental data taken from PubChem BioAssay AID2685 (National Center for Advancing Translational Sciences (NCATS), 2010).
The other results are listed elsewhere or left out. These are further read-outs of the screen, such as a control signal, another cell line or another target. No call is given for them. The list favours compounds with an active or inconclusive main result. Words in brackets tell the shape of the fitted curve; partial curves, single points and poor fits give uncertain potencies.

Assay: qHTS Assay for Lipid Storage Modulators in Drosophila S3 Cells;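 as to cell number change: cells counted by Cell Tracker Red CMTPX staining in the red channel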
Details: BODIPY lipid droplet fluorescence, 18-24 h; for cell number change: measured here: cell count max response, cells fed with added oleic acid
Method in brief: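 Drosophila S3 cells got compounds at several concentrations plus oleic acid (400 uM solution). Laser-scanning cytometry with 488 nm excitation read lipid droplets at 500-530 nm and cells at 575-640 nm. Percent activity was relative to 20 uM Triacsin C.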

[1] = measured here: lipid fluorescence (Fed channel) AC50, cells fed with added oleic acid
[2] = measured here: cell number channel AC50, cells fed with added oleic acid

Row | Structure (SMILES) | cell number change [%] | AC50 [1] | AC50 [2]
1 | CCN(Cc1ccccc1)C(=O)Cn1c(=O)n(CCC(=O)N2CCCCC2)c(=O)c2sccc21 | -26.3 | – | –
2 | CC1=C(C(=O)OCc2ccccc2)C(c2cccnc2)c2c(n(C)c(=O)n(C)c2=O)N1 (stereo not drawn) | -16.2 | 16.4 µM [falling, partial curve, poor fit] | –
3 | Cc1c(OCC(=O)NC2CC(C)(C)NC(C)(C)C2)ccc2c3c(c(=O)oc12)CCC3 | – | 25.9 µM [rising, partial curve] | –
4 | COc1cc(/C=C2\CC/C(=C\c3cc(OC)c(OC)c(OC)c3)C2=O)cc(OC)c1OC | 48.2 | 6.51 µM [rising, single point] | 6.51 µM [falling, single point]
5 | Cc1cc(C)c(C(=O)COC(=O)C2CCN(c3ccc(C(F)(F)F)cn3)CC2)cc1C | 37.9 | – | 18.4 µM [rising, single point]
6 | COc1cccc(CCc2nnc(CCC(=O)NC(C)c3c(C)nn(C)c3C)o2)c1 (stereo not drawn) | 11.7 | 0.651 µM [falling, full curve] | –
7 | CC(=O)NCCc1nc2ccccc2n1CCOc1ccccc1C | 39 | 29.1 µM [rising, single point] | –
8 | Cc1ccc(NC2CCCN(C(=O)c3ccoc3C)C2)cc1C (stereo not drawn) | 14.2 | 8.2 µM [rising, partial curve] | –
9 | CC1=Nc2cc(C(=O)NCc3ccco3)ccc2Sc2ccc(C)cc21 | 6.97 | 0.92 µM [falling, full curve, poor fit] | –
10 | O=C1CCCN1c1ccc(C(=O)N(Cc2nnc(-c3ccc(Cl)cc3)o2)C2CC2)cc1 | 36 | – | 5.8 µM [rising, partial curve, poor fit]
11 | Cc1[nH]n(C(N)=S)c(=O)c1C(c1ccccc1)C(C#N)C#N (stereo not drawn) | 83.2 | – | 18.4 µM [rising, single point]
12 | CCOC(=O)N1CCN(S(=O)(=O)c2ccc(OC)c(Br)c2)CC1 | 14.2 | 6.51 µM [rising, single point] | –
13 | CCOCCOC(=O)C1=C(C)N(C)C(=O)NC1c1ccccc1F (stereo not drawn) | -9.89 | 29.1 µM [rising, single point] | –
14 | COc1ccc(NC(=O)CN(C)C(=O)Cc2c(C)nc3ccccc3c2C)cc1 | 65.1 | – | 23.1 µM [rising, partial curve]
15 | Oc1ccc(C23CCCC2C2(CCCC2)c2ccc(O)cc2O3)c(O)c1 (stereo not drawn) | -78 | 0.259 µM [rising, full curve, poor fit] | 29.1 µM [falling, single point]
16 | CCOc1ccc(-c2[nH]ncc2Oc2ccccc2OC)c(O)c1 | -71 | 29.1 µM [falling, single point] | 29.1 µM [falling, single point]

A section from further up:
Row | Structure (SMILES) | cell number change [%] | AC50 [1] | AC50 [2]
14 | COc1ccc(NC(=O)CN(C)C(=O)Cc2c(C)nc3ccccc3c2C)cc1 | 65.1 | – | 23.1 µM [rising, partial curve]
15 | Oc1ccc(C23CCCC2C2(CCCC2)c2ccc(O)cc2O3)c(O)c1 (stereo not drawn) | -78 | 0.259 µM [rising, full curve, poor fit] | 29.1 µM [falling, single point]
